Taken from: PubChem BioAssay AID743454 (Peter MacCallum Cancer Centre, 2014)

Assay: 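Knock-downs lowering viability or raising caspase 3/7 activity in vorinostat-treated resistant cells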 (primary screen)
Cell system: human HCT116-VR colon cancer cells, selected for vorinostat resistance
Reagents: siRNA pool against human genes, 40 nM siRNA pool
Timing: vorinostat for 24 h, read-out about 72 h after transfection
Conditions: vorinostat at 2.5 µM final
Measured: 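Cell viability by CellTiter-Fluor and caspase 3/7 activity by luminescence, each scaled to mock wells per plate, duplicates averaged, then robust z-scored over all plates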
Reading the numbers: viability robust z-score: higher = more viable cells than screen typical; caspase robust z-score: higher = more caspase 3/7 activity than screen typical
Call rule: 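a knock-down is a hit when classed RV1 or RV2 for lowered viability, or CA1 or CA2 for caspase activation; those lethal without drug were dropped; hits were retested singly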
The deposit covers about 18,000 reagents; shown is a random part of them. 450 of all reagents (2.5%) count as active. 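Single biological run; no consistent viability z cut-off exists, so the class columns, not z-scores, define the calls.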 A number with no mark means an inactive call. The numbers tell different reagents against one gene apart. No sequences are given here.

| target gene | pool no. | viability hit class | caspase hit class | viability robust z-score | caspase robust z-score |
| --- | --- | --- | --- | --- | --- |
| MSMP | 1 | no change | no change | 0.48 | 1.6 |
| EYA2 | 1 | no change | no change | 0.46 | 2.21 |
| PPWD1 | 1 | no change | no change | 0.67 | 1.02 |
| LTF | 1 | no change | no change | -0.82 | -0.44 |
| GZMM | 1 | no change | no change | -0.12 | 2.21 |
| REEP3 | 1 | no change | no change | -0.47 | -1.4 |
| ZNF281 | 1 | no change | no change | 0.08 | 2.71 |
| HCST | 1 | no change | no change | 0.11 | -0.34 |
| SHROOM1 | 1 | no change | no change | -0.12 | -0.06 |
| CADPS | 1 | no change | no change | 0.29 | -0.56 |
| ACSS2 | 1 | no change | no change | 2.09 | 2.49 |
| OVOS2P | 1 | no change | no change | 0.93 | -0.64 |
| TRAF3 | 1 | no change | no change | -1.87 | -0.55 |
| ZFP90 | 1 | no change | no change | -1.19 | 0.07 |
| THRSP | 1 | no change | no change | -0.92 | 4.27 |
| C9orf85 | 1 | no change | no change | 0.39 | -0.46 |
| NSA2 | 1 | no change | no change | -4.64 | 1.5 |
| PTPA | 1 | no change | no change | -0.77 | 0 |
| FAM219A | 1 | no change | no change | 1.17 | -1.21 |
| RLBP1 | 1 | no change | no change | 0.2 | 0.08 |
| NFE2L3 | 1 | no change | no change | -0.36 | -0.77 |
| MUC4 | 1 | no change | no change | 0.44 | -0.6 |
| PRRC1 | 1 | no change | no change | 0.26 | 0.18 |
| PVR | 1 | no change | no change | -0.02 | -1.04 |
| GC | 1 | no change | no change | 0.09 | 1.03 |
| KDM5A | 1 | no change | no change | -0.65 | -0.52 |
| LDHB | 1 | no change | no change | 0.3 | -0.98 |
| INTS2 | 1 | no change (active) | CA1 (caspase activation) | -0.42 | 6.75 |
| PAF1 | 1 | no change | no change | -2.14 | 3.91 |
| ANXA10 | 1 | no change | no change | -0.7 | -0.86 |
| PLA2G2D | 1 | no change | no change | -0.3 | 1.42 |
| SLC10A7 | 1 | no change | no change | 0.03 | -0.26 |
| RSPO2 | 1 | no change | no change | 1.64 | 1.34 |
| HCAR1 | 1 | no change | no change | -0.14 | 1.12 |
| DEFB4A | 1 | no change | no change | -1.38 | 0.21 |
| FAM78A | 1 | no change | no change | 0.48 | -0.3 |
| RPS6KB2 | 1 | no change | no change | -0.68 | 0.32 |
| SCGB2B2 | 1 | no change | no change | 0.55 | -0.17 |
| TRHDE | 1 | no change | no change | 0 | -0.66 |
| SYVN1 | 1 | no change (active) | CA2 (caspase activation) | -2.47 | 15.8 |
| DNAJB8 | 1 | no change | no change | -2.26 | 1.18 |
| RESF1 | 1 | no change | no change | 1.42 | -0.4 |
| DEFB110 | 1 | no change | no change | 0.89 | -0.38 |
| DEFB110 | 2 | no change | no change | 0.72 | 0.2 |
| TTC9C | 1 | no change | no change | 1 | -0.14 |
| PI4K2B | 1 | no change | no change | -0.46 | 2.97 |
| MLX | 1 | no change | no change | -1.42 | 0.6 |
| LRRC7 | 1 | no change | no change | 1.29 | -0.73 |
| LARP7 | 1 | no change | no change | -0.89 | -1.17 |
| THBS2 | 1 | no change | no change | 0.02 | 0.01 |
| SLC7A6 | 1 | no change | no change | -1.21 | 0.9 |
| DRD3 | 1 | no change | no change | -0.49 | -0.28 |
| SYNPR | 1 | no change | no change | -0.14 | -0.22 |
| ALG11 | 1 | no change | no change | 0.38 | 0.26 |
| OPCML | 1 | no change | no change | -0.36 | -0.49 |
| FAM222B | 1 | no change | no change | -0.18 | -0.69 |
| INPP5B | 1 | no change | no change | -0.93 | 3.58 |
| TMEM268 | 1 | no change | no change | -0.59 | -0.93 |
| ENTHD1 | 1 | no change | no change | 1.55 | -0.7 |
| TERF1 | 1 | no change | no change | 0.11 | -0.82 |
| MUC2 | 1 | no change | no change | -1.12 | -0.24 |
| TLN1 | 1 | no change | no change | 1.57 | -0.82 |
| IL11RA | 1 | no change | no change | 1.07 | -0.55 |
| ATP6AP1 | 1 | no change | no change | -1.54 | -0.28 |
| AFM | 1 | no change | no change | 0.01 | -0.38 |
| FABP4 | 1 | no change | no change | -1.52 | -1.2 |
| ANKRD30A | 1 | no change | no change | -2.41 | 2.54 |
| PDPK1 | 1 | no change | no change | 0.2 | -0.34 |
| ARL8B | 1 | no change | no change | 0.88 | -0.5 |
| GSTP1 | 1 | no change | no change | -0.6 | 2.32 |
| POLB | 1 | no change | no change | 1 | -0.59 |
| SACK1E | 1 | no change | no change | -0.88 | -0.76 |
| COMMD4 | 1 | no change | no change | -1.29 | -1.28 |

Entries listed so far whose target name begins with G or g:
| target gene | pool no. | viability hit class | caspase hit class | viability robust z-score | caspase robust z-score |
| --- | --- | --- | --- | --- | --- |
| GZMM | 1 | no change | no change | -0.12 | 2.21 |
| GC | 1 | no change | no change | 0.09 | 1.03 |
| GSTP1 | 1 | no change | no change | -0.6 | 2.32 |
